± gives the standard deviation of the averaged measurements. Small differences around the control level are noise.
What was measured:
Test in all cases: level (log10 ratio to DMSO vehicle control); higher = higher biomarker level / cell amount than vehicle control
[1] = compound: C=C(C)C(=O)OCC(F)(F)C(F)(F)C(F)(F)F [2,2,3,3,4,4,4-Heptafluorobutyl methacrylate]; conditions: 2200 nM; in DMSO
Procedure: (§1)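 BioMAP Diversity Plus panel of 12 human primary cell co-culture systems (3C, 4H, LPS, SAg, BT, BF4T, BE3C, CASM3C, HDF3CGF, KF3CT, MyoF, Mphg). Compounds were added 1 h before stimulation and left for 24 h (MyoF 48 h; BT 72 h for soluble read-outs or 6 d for IgG). Biomarkers were read by ELISA, cytotoxicity by SRB, PBMC viability and proliferation by Alamar Blue. Each well value was divided by the mean of 8 DMSO control wells on the same plate and log10 transformed; duplicate blinded samples were tested at 4 concentrations.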

[2] = compound: C=CC(=O)OCC(F)(F)C(F)(F)C(F)(F)C(F)(F)COC(=O)C=C [1H,1H,6H,6H-Perfluorohexane-1,6-diol diacrylate]; conditions: 2200 nM; in DMSO
Procedure: as §1

[3] = compound: FC(F)(F)C(F)(F)C(F)(F)C(F)(F)C(F)(F)C(F)(F)C(F)(F)CCI [1-Iodo-1H,1H,2H,2H-perfluorononane]; conditions: in DMSO
Procedure: as §1

[4] = compound: FC(F)(F)C(F)(F)C(F)(F)C(F)(F)C(F)(F)C(F)(F)C(F)(F)I [1-Iodopentadecafluoroheptane]; conditions: in DMSO
Procedure: as §1

[5] = compound: FC(F)C(F)(F)COCC1CO1 [((2,2,3,3-Tetrafluoropropoxy)methyl)oxirane]; conditions: 2200 nM; in DMSO
Procedure: as §1

[6] = compound: NC(=O)C(F)(F)C(F)(F)C(F)(F)C(F)(F)C(F)(F)C(F)(F)C(F)(F)F [Perfluorooctanamide]; conditions: 2200 nM; in DMSO
Procedure: as §1

[7] = compound: O=C(O)C(F)(F)C(F)(F)C(F)(F)C(F)(F)C(F)(F)C(F)(F)C(F)(F)C(F)(F)C(F)(F)C(F)(F)F [Perfluoroundecanoic acid]; conditions: in DMSO
Procedure: as §1

[8] = compound: O=C(O)C(F)(F)C(F)(F)C(F)(F)C(F)(F)C(F)(F)C(F)(F)C(F)(F)C(F)F [9-H-Perfluorononanoic acid]; conditions: 2200 nM; in DMSO
Procedure: as §1

[9] = compound: O=C(O)C(F)(F)C(F)(F)C(F)(F)F [Perfluorobutanoic acid]; conditions: 2200 nM; in DMSO
Procedure: as §1

[10] = compound: O=C(O)C(F)(F)C(F)(F)F [Perfluoropropanoic acid]; conditions: 2200 nM; in DMSO
Procedure: as §1

[11] = compound: O=C(O)C(F)(F)C(F)(F)OC(F)(F)F [Perfluoro-3-methoxypropanoic acid]; conditions: 2200 nM; in DMSO
Procedure: as §1

[12] = compound: O=C(O)C(F)(F)OC(F)(F)C(F)(F)OC(F)(F)C(=O)O [Perfluoro-3,6-dioxaoctane-1,8-dioic acid]; conditions: 2200 nM; in DMSO
Procedure: as §1

[13] = compound: O=C(O)C(F)(F)OC(F)(F)C(F)(F)OC(F)(F)C(F)(F)C(F)(F)C(F)(F)F [Perfluoro-3,6-dioxadecanoic acid]; conditions: 2200 nM; in DMSO
Procedure: as §1

[14] = compound: O=C(O)C=CC(F)(C(F)(F)F)C(F)(F)F [3-(Perfluoroisopropyl)-2-propenoic acid]; conditions: in DMSO
Procedure: as §1

[15] = compound: O=P(O)(O)CCC(F)(F)C(F)(F)C(F)(F)C(F)(F)C(F)(F)C(F)(F)C(F)(F)C(F)(F)F [((Perfluorooctyl)ethyl)phosphonic acid]; conditions: 2200 nM; in DMSO
Procedure: as §1

[16] = compound: O=S(=O)(Cl)C(F)(F)C(F)(F)C(F)(F)C(F)(F)C(F)(F)C(F)(F)C(F)(F)C(F)(F)F [Perfluoro-1-octanesulfonyl chloride]; conditions: 2200 nM; in DMSO
Procedure: as §1

[17] = compound: OCC(F)(F)C(F)(F)C(F)(F)C(F)(F)C(F)(F)C(F)(F)C(F)(F)C(F)(F)C(F)(F)C(F)(F)C(F)(F)F [11:1 Fluorotelomer alcohol]; conditions: in DMSO
Procedure: as §1

[18] = compound: OCCC(F)(F)C(F)(F)C(F)(F)C(F)(F)C(F)(F)C(F)(F)C(F)(F)C(F)(F)F [8:2 Fluorotelomer alcohol]; conditions: 2200 nM; in DMSO
Procedure: as §1

Test System | level (log10) [1] | level (log10) [2] | level (log10) ([3]; 740 nM) | level (log10) ([3]; 2200 nM) | level (log10) ([3]; 6700 nM) | level (log10) ([3]; 20000 nM) | level (log10) ([4]; 740 nM) | level (log10) ([4]; 2200 nM) | level (log10) ([4]; 6700 nM) | level (log10) ([4]; 20000 nM) | level (log10) [5] | level (log10) [6] | level (log10) ([7]; 740 nM) | level (log10) ([7]; 2200 nM) | level (log10) [8] | level (log10) [9] | level (log10) [10] | level (log10) [11] | level (log10) [12] | level (log10) [13] | level (log10) ([14]; 2200 nM) | level (log10) ([14]; 6700 nM) | level (log10) ([14]; 20000 nM) | level (log10) ([14]; 60000 nM) | level (log10) [15] | level (log10) [16] | level (log10) ([17]; 370 nM) | level (log10) ([17]; 1100 nM) | level (log10) ([17]; 3300 nM) | level (log10) ([17]; 10000 nM) | level (log10) [18]
3C:CD62E/E-Selectin | 0.002 ± 0.042 | -0.0005 ± 0.0092 | -0.0045 ± 0.029 | -0.01 | -0.0135 ± 0.0035 | -0.028 ± 0.014 | 0.0165 ± 0.0021 | -0.0115 ± 0.005 | -0.0085 ± 0.00071 | -0.003 ± 0.011 | 0.0185 ± 0.00071 | -0.0005 ± 0.013 | -0.0225 ± 0.023 | -0.021 ± 0.014 | -0.012 ± 0.0042 | -0.007 ± 0.011 | 0 ± 0.033 | 0.0195 ± 0.0078 | 0.013 ± 0.0085 | 0.0195 ± 0.016 | 0.0015 ± 0.0078 | -0.009 ± 0.013 | -0.031 ± 0.0085 | -0.0155 ± 0.013 | -0.0035 ± 0.015 | -0.0125 ± 0.019 | 0 ± 0.031 | -0.0125 ± 0.013 | 0.008 ± 0.0028 | 0.0155 ± 0.0078 | 0.0045 ± 0.046
BE3C:CXCL8/IL-8 | 0.0185 ± 0.1 | -0.0085 ± 0.0021 | 0.075 ± 0.0085 | 0.0205 ± 0.077 | 0.018 ± 0.11 | 0.0505 ± 0.12 | 0.0085 ± 0.052 | -0.005 ± 0.014 | -0.0175 ± 0.0078 | -0.007 ± 0.0057 | 0.003 ± 0.0028 | 0.0015 ± 0.021 | 0.0365 ± 0.076 | 0.0065 ± 0.042 | 0.0515 ± 0.083 | 0.0205 ± 0.04 | 0.0135 ± 0.025 | 0.0115 ± 0.023 | -0.019 ± 0.018 | -0.0055 ± 0.022 | 0.013 ± 0.09 | -0.0015 ± 0.035 | 0.003 ± 0.0057 | 0.0545 ± 0.059 | 0.075 ± 0.062 | 0.023 ± 0.016 | -0.0385 ± 0.03 | -0.086 ± 0.011 | -0.158 ± 0.055 | -0.0975 ± 0.042 | -0.0055 ± 0.039
LPS:CCL2/MCP-1 | -0.0085 ± 0.04 | 0.016 ± 0.028 | 0.0245 ± 0.0035 | -0.0135 ± 0.005 | -0.008 ± 0.016 | 0.0145 ± 0.04 | 0.011 ± 0.011 | -0.0005 ± 0.016 | 0.0035 ± 0.00071 | 0.0225 ± 0.0021 | 0.008 | -0.0155 ± 0.032 | 0.034 ± 0.027 | 0.005 ± 0.0028 | -0.0075 ± 0.0064 | -0.004 ± 0.0057 | 0.005 ± 0.0085 | -0.006 ± 0.059 | -0.002 ± 0.027 | 0.009 ± 0.011 | -0.0045 ± 0.021 | 0.004 ± 0.0085 | -0.0155 ± 0.013 | -0.0015 ± 0.0021 | 0.0075 ± 0.03 | 0.019 ± 0.051 | -0.0035 ± 0.026 | -0.001 ± 0.0028 | -0.011 ± 0.011 | -0.009 ± 0.035 | 0.0085 ± 0.033
LPS:sTNF-alpha | 0.0305 ± 0.025 | 0.0465 ± 0.0064 | -0.0025 ± 0.0064 | 0.0065 ± 0.005 | 0.0075 ± 0.0035 | 0.0035 ± 0.0021 | -0.0045 ± 0.098 | 0.034 ± 0.0057 | 0.0115 ± 0.018 | 0.0025 ± 0.0092 | 0.0055 ± 0.028 | -0.038 ± 0.045 | 0.0405 ± 0.022 | 0.021 ± 0.0085 | -0.0085 ± 0.023 | 0.018 ± 0.024 | 0.0175 ± 0.013 | 0.014 ± 0.083 | 0.0205 ± 0.087 | 0.026 ± 0.013 | 0.044 ± 0.086 | 0.003 ± 0.1 | 0.0345 ± 0.057 | 0.0395 ± 0.03 | 0.038 ± 0.035 | -0.0225 ± 0.047 | 0.033 ± 0.0057 | 0.0075 ± 0.012 | -0.0485 ± 0.013 | -0.105 ± 0.08 | 0.0015 ± 0.056
BF4T:CXCL8/IL-8 | 0.0545 ± 0.12 | -0.003 ± 0.021 | 0.0115 ± 0.019 | -0.004 ± 0.011 | -0.0015 ± 0.018 | 0.011 ± 0.025 | 0.014 ± 0.093 | 0.049 ± 0.055 | 0.0515 ± 0.079 | 0.0425 ± 0.044 | 0.0185 ± 0.0064 | 0.0105 ± 0.022 | 0.047 ± 0.023 | 0.063 ± 0.0071 | 0.04 ± 0.025 | 0.009 ± 0.037 | 0.0365 ± 0.0035 | 0.0205 ± 0.0064 | 0.021 ± 0.035 | 0.076 ± 0.027 | 0.0135 ± 0.026 | 0.0055 ± 0.012 | -0.0015 ± 0.0064 | 0.001 ± 0.021 | 0.014 ± 0.047 | -0.0245 ± 0.00071 | -0.084 ± 0.12 | 0.001 ± 0.0057 | 0.0145 ± 0.037 | 0.028 ± 0.042 | -0.0095 ± 0.022
BF4T:MMP-9 | 0.0015 ± 0.035 | 0.014 ± 0.024 | -0.012 ± 0.017 | -0.0045 ± 0.052 | 0.007 ± 0.044 | -0.0065 ± 0.028 | 0.009 ± 0.048 | -0.0335 ± 0.0064 | -0.0345 ± 0.063 | -0.019 ± 0.013 | 0.006 ± 0.025 | 0.003 ± 0.027 | -0.012 ± 0.03 | -0.0445 ± 0.022 | -0.016 ± 0.037 | 0.027 ± 0.048 | -0.019 ± 0.03 | -0.0075 ± 0.035 | 0.0005 ± 0.023 | -0.017 ± 0.016 | 0.001 ± 0.057 | 0.0015 ± 0.029 | 0.004 ± 0.0099 | 0.025 ± 0.04 | 0.017 ± 0.037 | -0.0005 ± 0.022 | -0.028 ± 0.044 | -0.025 ± 0.03 | -0.02 ± 0.0071 | -0.03 ± 0.0057 | -0.0105 ± 0.018
KF3CT:CD54/ICAM-1 | 0.004 ± 0.0071 | -0.02 ± 0.014 | 0.008 ± 0.0071 | -0.009 ± 0.016 | -0.0045 ± 0.0092 | -0.0175 ± 0.025 | -0.007 ± 0.017 | -0.026 ± 0.014 | -0.015 ± 0.0085 | -0.018 ± 0.021 | -0.016 ± 0.018 | 0.0085 ± 0.03 | -0.018 ± 0.0099 | -0.0225 ± 0.0092 | -0.0045 ± 0.033 | 0.012 ± 0.016 | 0 ± 0.011 | 0.0105 ± 0.037 | 0.014 ± 0.02 | -0.022 ± 0.025 | 0.0025 ± 0.037 | 0.0075 ± 0.013 | 0.011 ± 0.018 | -0.0025 ± 0.029 | 0.0125 ± 0.0021 | 0.006 ± 0.028 | 0 ± 0.0099 | -0.014 ± 0.0071 | -0.0295 ± 0.0021 | -0.0045 ± 0.012 | -0.01 ± 0.024

— the supplement of paper PMC10331698
